From paper doi:10.1101/2021.04.23.441157

Target: T1, Cdc12 with primary sequence derived from S. cerevisiae (S. cerevisiae) (UniProt P32468)
T1 sequence: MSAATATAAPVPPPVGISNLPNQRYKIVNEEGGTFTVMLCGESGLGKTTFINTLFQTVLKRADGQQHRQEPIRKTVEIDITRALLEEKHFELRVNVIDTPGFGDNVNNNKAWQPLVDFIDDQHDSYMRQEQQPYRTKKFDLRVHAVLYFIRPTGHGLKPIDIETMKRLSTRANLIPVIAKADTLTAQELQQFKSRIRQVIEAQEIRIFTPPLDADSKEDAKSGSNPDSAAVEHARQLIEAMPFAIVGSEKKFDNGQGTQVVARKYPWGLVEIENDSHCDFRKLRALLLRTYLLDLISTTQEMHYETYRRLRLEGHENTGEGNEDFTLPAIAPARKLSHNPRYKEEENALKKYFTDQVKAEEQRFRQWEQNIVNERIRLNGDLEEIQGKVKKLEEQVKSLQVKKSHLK
Experiment: co-purification on cobalt resin + negative-stain electron microscopy

## Ashbya gossypii Cdc11a
  binding: binds

## Ashbya gossypii Cdc11b
  binding: binds

Results are given in words; binding and its absence hold for the method and conditions named. Binding seen in cells or lysates may run through a third protein. Binding calls can cover weak binding; strength is not graded here.
